Measured values: article PMC4365481
No constants are given. Whether binding was seen depends on the method and setting. A result given as binding can be weak or reduced; the word gives no strength.

Biological target: His6-GluN1 cytoplasmic domain (residues 834–938) (UniProt P35439)
Assay: ELISA; 10 µg/ml cleaved ICAM-5 WT, mutated or His6-GluN1 cytoplasmic protein coated on 96-well plates, blocked with 5% BSA (ICAM-5) or 2% sucrose/0.1% BSA/0.9% NaCl (His6-GluN1cyto); GST-α-actinin R proteins incubated 1 h; detected with peroxidase-conjugated GST antibody, absorbance at 492 nm; values normalized to BSA binding; both purified

For “GST-α-actinin R1-R4 (the whole rod domain) (from UniProt P05094) (domain or fragment)”, the binding was “binds”.
